Laboratory results as given in PMC7884786 (Translational Psychiatry, 2021).
Results are given in words; binding and its absence hold for the method and conditions named. Binding seen in cells or lysates may run through a third protein. Some entries that bind do so weakly or less than the wild type.

Chains of the proteins cited; added tags and fusions are not shown.
UniProt P22909: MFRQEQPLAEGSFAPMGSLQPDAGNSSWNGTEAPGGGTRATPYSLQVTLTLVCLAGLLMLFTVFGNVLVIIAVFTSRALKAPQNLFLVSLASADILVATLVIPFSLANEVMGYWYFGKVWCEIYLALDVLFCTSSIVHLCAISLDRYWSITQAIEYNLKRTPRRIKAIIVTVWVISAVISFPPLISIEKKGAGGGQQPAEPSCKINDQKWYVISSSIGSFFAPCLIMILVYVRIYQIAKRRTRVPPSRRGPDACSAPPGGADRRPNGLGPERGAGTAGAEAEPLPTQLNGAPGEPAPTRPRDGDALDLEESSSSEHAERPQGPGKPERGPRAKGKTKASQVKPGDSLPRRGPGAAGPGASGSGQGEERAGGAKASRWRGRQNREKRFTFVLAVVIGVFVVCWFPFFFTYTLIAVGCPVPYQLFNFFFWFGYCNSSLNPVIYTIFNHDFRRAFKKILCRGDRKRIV
UniProt P32121: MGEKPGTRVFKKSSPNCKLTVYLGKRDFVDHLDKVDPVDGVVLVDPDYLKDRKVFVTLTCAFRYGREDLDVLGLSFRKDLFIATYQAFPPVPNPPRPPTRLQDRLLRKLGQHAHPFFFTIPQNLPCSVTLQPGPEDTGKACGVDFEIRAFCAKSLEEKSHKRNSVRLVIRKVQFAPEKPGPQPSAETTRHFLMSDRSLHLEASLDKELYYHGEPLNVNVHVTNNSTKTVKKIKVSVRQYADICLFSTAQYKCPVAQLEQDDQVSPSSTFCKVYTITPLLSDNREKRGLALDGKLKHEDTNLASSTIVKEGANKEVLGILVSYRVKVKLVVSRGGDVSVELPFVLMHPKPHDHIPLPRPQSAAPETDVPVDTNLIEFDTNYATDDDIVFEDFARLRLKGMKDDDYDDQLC
UniProt P63096: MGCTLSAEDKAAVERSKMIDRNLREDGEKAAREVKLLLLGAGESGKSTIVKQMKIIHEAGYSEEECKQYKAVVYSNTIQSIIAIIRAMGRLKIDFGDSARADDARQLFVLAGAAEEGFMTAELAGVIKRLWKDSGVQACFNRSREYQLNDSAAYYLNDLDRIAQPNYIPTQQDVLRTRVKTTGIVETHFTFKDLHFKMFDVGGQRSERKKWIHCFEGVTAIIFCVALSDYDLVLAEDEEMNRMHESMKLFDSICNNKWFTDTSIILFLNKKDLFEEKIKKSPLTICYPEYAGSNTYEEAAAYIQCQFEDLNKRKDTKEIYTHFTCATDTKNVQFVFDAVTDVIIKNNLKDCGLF

Target: rat α2A-adrenergic receptor fused to HaloTag at the C-terminus (α2A-AR-HaloTag) (rat) (UniProt P22909)
Assay: FRET or BRET; nanoBRET in living HEK-293T cells co-transfected with HaloTag-receptor (618 ligand, acceptor) and NanoLuc-Gαi1(91) or NanoLuc-β-arrestin2 (donor); concentration-response to NE or DA, read 5 min after drug addition; 5 μM furimazine; signal corrected by NanoLuc-only cells

binding | Substance
binds | human β-arrestin2 fused with NanoLuc at the N terminus (NanoLuc-β-arrestin2) (from UniProt P32121 1-409)
binds | human Gαi1 with nanoluciferase (NanoLuc) inserted at position 91 (NanoLuc-Gαi1(91)) (from UniProt P63096 1-354)
